Test results reported in patent US20140294765A1 (COMPUGEN, published 2014).
No constants are given. Whether binding was seen depends on the method and setting. Binding can be weak; no strength is given.

What was measured:
[1] = target: endogenous human LSR protein of cancer cell lines (human); experiment: flow cytometry with hybridoma supernatant after LSR siRNA against scrambled siRNA (FIG. 17)
[2] = target: endogenous human LSR protein of cancer cell lines (human); experiment: flow cytometry on HepG2/C3A cells (endogenous LSR) with 8C8 hybridoma supernatant, after LSR-specific or scrambled siRNA (50 pmol), FL1-H
[3] = target: endogenous human LSR protein of cancer cell lines (human); experiment: flow cytometry on HT29 cells (endogenous LSR) with 8C8 hybridoma supernatant, after LSR-specific or scrambled siRNA (30 pmol), FL1-H

Measured: binding

B1: 8C8, mouse IgG2a monoclonal antibody against human LSR (antibody, V domains shown)
VH: DVKLVESGGGLVKLGGSLKLSCAASGFTFSSYYMSWVRQTPEKRLELVAAINSNGGSTYYPDTVKGRFTISRDNAKNTLYLQMSSLKSEDTALYYCARHDYYGSSFAMDYWGQGTSVTVSS
VL: DIQMTQTTSSLSASLGDRVTISCRASQDISNYLNWYQQKPDGTVKLLIYYTSRLHSGVPSRFSGSGSGTDYSLTISNLEQEDIATYFCQQDSKHPWTFGGGTKLEIK
notes: also called 8C8 mAb; mAb 8C8
binds: all assays above
